Reference: PubChem BioAssay AID2685 (National Center for Advancing Translational Sciences (NCATS), 2010)
Several values for one entry are separate records, joined by “and”; a condition that tells them apart may be missing. Identical values can stand only once. This is one part of the list. Further columns of the screen follow, without active or inactive calls. Most of these compounds were active or inconclusive in the main read-out, so they are no random draw. Words in brackets tell the shape of the fitted curve; partial curves, single points and poor fits give uncertain potencies.

Test: qHTS Assay for Lipid Storage Modulators in Drosophila S3 Cells;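 as to cell number change: cells counted by Cell Tracker Red CMTPX staining in the red channel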
Settings: BODIPY lipid droplet fluorescence, 18-24 h; for cell number change: measured here: cell count max response, cells fed with added oleic acid
Method in brief: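 Drosophila S3 cells got compounds at several concentrations plus oleic acid (400 uM solution). Laser-scanning cytometry with 488 nm excitation read lipid droplets at 500-530 nm and cells at 575-640 nm. Percent activity was relative to 20 uM Triacsin C.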

[1] = measured here: lipid fluorescence (Fed channel) AC50, cells fed with added oleic acid
[2] = measured here: cell number channel AC50, cells fed with added oleic acid

Row | Compound | AC50 [1] | cell number change [%] | AC50 [2]
1 | COc1ccc(N=C2SC(CC(=O)Nc3cccc(Cl)c3)C(=O)N2Cc2ccco2)cc1 (configuration not stated) | 29.1 µM [falling, single point] | – | –
2 | Cc1cc(N2C(=O)C(O)=C(C(=O)c3ccco3)C2c2ccc(Cl)cc2)no1 (configuration not stated) | 6.51 µM [falling, single point] | -5.42 | –
3 | Cc1cc(=O)oc2cc(OCC(=O)N3CCCC3)c(Cl)cc12 | 18.4 µM [falling, single point] | 8.14 | –
4 | COc1cc(CCC(=O)OCC(=O)c2ccc[nH]2)cc(OC)c1OC | 2.59 µM [falling, single point] | 0.937 | –
5 | COc1ccc(CC(=O)OCC(=O)NCc2ccco2)cc1 | 3.26 µM [falling, full curve] | -19.8 | 6.51 µM [falling, single point]
6 | CCn1c(C)nc2cc(S(=O)(=O)C(F)(F)C(F)C(F)(F)F)ccc21 (configuration not stated) | 6.51 µM [falling, full curve] | -52.2 | 18.4 µM [falling, single point]
7 | Cc1cc(C(=O)COC(=O)c2ccc3c(c2)OCO3)c(C)n1CC1CCCO1 (configuration not stated) | – | 103 | 2.59 µM [rising, full curve]
8 | CC12CCC(C(=O)N(CC(O)CN3CCCCC3)C1=O)C2(C)C (configuration not stated) | – | -72.4 | 18.4 µM [falling, partial curve]
9 | Cc1cc(-c2ccc(C)c(S(=O)(=O)N3CCN(c4ccc(F)cc4)CC3)c2)on1 | 29.1 µM [rising, single point] | 29.5 | 0.366 µM [rising, full curve, poor fit]
10 | Cc1cc(C)nc(SCc2ccc(C(=O)NN=C3C4CC5CC(C4)CC3C5)cc2)n1 | 18.4 µM [rising, single point] | -33.3 | 0.00461 µM [falling, full curve, poor fit]
11 | Cn1c(SCC(=O)NC(=O)NCc2ccco2)nnc1C(F)(F)F | 0.651 µM [rising, full curve, poor fit] | 24.1 | –
12 | O=C(CCN1C(=O)/C(=C/c2ccccc2Cl)SC1=S)NN1CCOCC1 | 0.259 µM [falling, partial curve, poor fit] | -3.06 | –
13 | O=C(Nc1nc2ccccc2s1)C1CC(=O)N(c2ccccc2)C1 (configuration not stated) | – | -14.2 | –
14 | CCCOC(=O)c1ccc(NC(=O)c2c(Cl)ccc(Cl)c2OC)cc1 | 6.51 µM [rising, single point] | 8.72 | –
15 | CCO[C@@H]1OC(C(=O)NCc2ccccc2)=C[C@H](c2ccc(Br)cc2)[C@H]1CCCO | – | -19.3 | –
16 | CN(C)/C=N/c1nc(Sc2ccc(C(F)(F)F)cc2[N+](=O)[O-])n[nH]1 | 13 µM [rising, partial curve, poor fit] | 33.8 | 29.1 µM [rising, single point]
17 | CCN(CC)C(=O)c1c(NC(=O)c2ccccc2)sc(C)c1C | – | 24.7 | 0.731 µM [rising, full curve, poor fit]
18 | CN(CCCNC(=O)c1ccccc1F)CCCNC(=O)c1ccccc1F | 23.1 µM [falling, single point] | -2.03 | –
19 | CCOC(=O)C1CCCN(c2ncnc3c2[nH]c2cccc(OC)c23)C1 (configuration not stated) | 9.2 µM [falling, partial curve] | – | 4.11 µM [falling, single point]

Row | Compound | AC50 [1] | cell number change [%] | AC50 [2]
20 | COc1ccc(C(=O)c2sc3nc(-c4ccccc4)ccc3c2N)cc1OC | – | -48.9 | 18.4 µM [falling, single point]
21 | Cc1ccc(NCc2ccccc2OCc2ccccc2F)cc1 | 23.1 µM [falling, single point] | -32.3 | 20.6 µM [falling, single point]
22 | Cn1c(=O)c2c(nc(Oc3ccc4c(c3)OCO4)n2Cc2ccc(Br)cc2)n(C)c1=O | 3.66 µM [falling, single point] | 14.9 | –
23 | COc1ccc(CCC(=O)N2CC(C)OC(C)C2)cc1 (configuration not stated) | 7.31 µM [falling, partial curve] | 1.69 | –
24 | CC(C)c1ccc2c(c1)c(SC(C)(C)C)c(CC(C)(C)C(=O)O)n2Cc1ccc(Cl)cc1 | 16.4 µM [falling, partial curve] | -79.5 | 14.6 µM [falling, partial curve] and 6.51 µM [rising, single point]
25 | Cc1ccc(N2CC(C(=O)OCC(=O)Nc3cccc(Cl)c3C)CC2=O)cc1 (configuration not stated) | 0.461 µM [rising, single point] | 26.6 | –
26 | NC(=O)c1ccccc1NC(=O)C1CCCO1 (configuration not stated) | 32.6 µM [rising, single point] | 8.2 | –
27 | Cc1cc(C)cc(NC(=S)N2CCC(NC(=O)c3ccccc3C)CC2)c1 | 23.1 µM [rising, partial curve] | 9.82 | –
28 | CCOC(=O)C1CCCN(C(=S)Nc2ccc(Nc3ccccc3)cc2)C1 (configuration not stated) | 0.562 µM [falling, full curve, poor fit] | -39.5 | –
29 | CCN(CC)S(=O)(=O)c1ccc(NC(=O)COC(=O)CNC(=O)C2CCCCC2)cc1 | – | -42.6 | 0.366 µM [falling, full curve]
30 | COc1ccc(CCNC(=O)C2CCN(S(=O)(=O)c3cccc4nsnc34)CC2)cc1OC | 20.6 µM [rising, single point] | – | –
31 | CC(C)NC(=S)N/N=C/c1c[nH]c2ccccc12 | 1.84 µM [rising, partial curve] | – | –
32 | COC(=O)[C@@H]1C[C@H]1[C@@H](NC(=O)c1ccccc1)c1ccccc1 | 9.2 µM [rising, partial curve, poor fit] | -5.11 | –
33 | Clc1ccc(CSc2ncn(-c3ccccc3)n2)cc1 | 0.326 µM [falling, partial curve] | -51.4 | 14.6 µM [falling, partial curve, poor fit]
34 | Clc1ccc(/C=N/c2c(-c3ccc(Cl)cc3)nc3n2CCS3)cc1 | 5.8 µM [falling, full curve, poor fit] | -16.2 | –
35 | CSc1ccccc1NC(=O)C1=COCCO1 | – | 2.79 | –
36 | CN(C)S(=O)(=O)c1ccc(C(=O)Nc2ccccc2[N+](=O)[O-])cc1 | 32.6 µM [rising, single point] | 24 | –
37 | CCCCOc1ccc(S(=O)(=O)Nc2ccc(NC(C)=O)cc2)cc1 | 13 µM [falling, single point] | -27.1 | –
38 | Cc1nn(-c2ccccc2)c2[nH]c(=O)c(CNc3ccc4c(c3)OCCO4)cc12 | – | 18.1 | –

Row | Compound | AC50 [1] | cell number change [%] | AC50 [2]
39 | COc1ccc(S(=O)(=O)Nc2cc(OC)c(NC(=O)c3ccco3)cc2OC)cc1 | 1.84 µM [rising, partial curve] | 40.9 | 0.291 µM [rising, full curve]
40 | O=C(CN1C(=O)c2ccccc2C1=O)NC1CCCCC1 | 0.058 µM [rising, full curve, poor fit] | – | –
41 | COCCn1c(=S)[nH]c2cc(C(=O)NCCc3ccccc3)ccc2c1=O | 0.411 µM [falling, full curve] | – | –
42 | O=S(=O)(c1ccc(OCC(O)CN2CCN(c3ccccc3)CC2)cc1)N1CCOCC1 (configuration not stated) | – | – | 0.82 µM [falling, full curve, poor fit]
43 | Cc1c(-c2ccccc2)sc(Br)c1C(=O)N1CCOCC1 | 6.51 µM [falling, single point] | -3.68 | –
44 | Cc1cccc(N(CC(O)CN(C)C)S(=O)(=O)c2ccccc2)c1 (configuration not stated) | 29.1 µM [falling, single point] | -38.5 | –
45 | CN1CCN(S(=O)(=O)c2ccc(NC(=O)c3ccco3)cc2)CC1 | 3.26 µM [falling, full curve] | -45.8 | 1.16 µM [falling, full curve]
46 | CN(Cc1ccccc1)C(=O)c1[nH]cnc1C(=O)NCc1ccc(CNC(=O)OC(C)(C)C)cc1 | 20.6 µM [falling, single point] | 14.4 | –
47 | O=C(N/N=C\c1ccc(Br)cc1)c1ccc(Cn2cccn2)o1 | 10.3 µM [rising, partial curve, poor fit] | – | –
48 | N/C(=N\OC(=O)c1ccc2ccccc2c1)c1ccc(Br)cc1 | 6.51 µM [rising, partial curve, poor fit] | -23.2 | 6.51 µM [rising, partial curve, poor fit]
49 | CN1CCCN(S(=O)(=O)c2ccc(O)c(C(=O)O)c2)CC1 | 32.6 µM [rising, single point] | 19 | –
50 | COc1cc(C2Nc3ccccc3C(=O)N2NS(C)(=O)=O)ccc1O (configuration not stated) | – | -26.3 | –
51 | C/C(=N\NC(=S)NC(C)C)c1ccccc1OC(F)F | – | 30.2 | 0.00411 µM [rising, full curve, poor fit]
52 | Cc1nn(Cc2ccccc2)c(C)c1C(=O)NCCN1C(=O)S/C(=C\c2ccccc2)C1=O | 29.1 µM [falling, single point] | -34.9 | 29.1 µM [falling, single point]
53 | COc1ccc(-c2csc3ncnc(N4CCN(c5ccccc5[N+](=O)[O-])CC4)c23)cc1 | 29.1 µM [falling, single point] | -21.3 | –
54 | CCc1nnc(NC(=O)c2cccc(S(=O)(=O)N3CCN(c4ccccc4)CC3)c2)s1 | – | -10.5 | –
55 | O=c1c2c3c(sc2ncn1Cc1ccc(F)cc1)CCC3 | 4.61 µM [rising, partial curve] | – | 2.91 µM [rising, partial curve]
56 | C=CCN(CC=C)S(=O)(=O)c1ccc(C(=O)Nc2nc3c(s2)CCc2ccccc2-3)cc1 | 2.59 µM [rising, partial curve] | -5.3 | 1.64 µM [rising, partial curve]
